From patent US12551570B2, “Compounds comprising cleavable linker and uses thereof” (IntoCell, Inc., priority 2019, dated 2026)
Some of these results come from one statement about several compounds together.

Experiments:
[1] = Plasma stability test, mouse plasma; format: in vitro ADME; settings: for up to 7 days, 37° C.
Protocol: (§1) Compound A-2 or A-3 and MPS used as an internal standard were dissolved in DMSO to achieve a concentration of 60 mM. Then, each of human plasma (Biochemed 752PR-SC-PMG), mouse plasma (Biochemed 029-APSC-MP), rat plasma (Biochemed 031-APSC-MP), and beagle dog plasma (Biochemed 013-APSC-MP) were mixed with the solution of the compound and MPS to achieve a final concentration of 300 μM (final 0.5% DMSO). The resulting plasma mixtures were incubated at 37° C. Aliquots were taken before the reaction and after 1 day, 2 days, 4 days, and 7 days. Each aliquot was 300 μL. To complete the reaction, two-fold volume of acetonitrile was added, followed by brief vortexing and centrifugation for plasma protein precipitation. Each supernatant obtained after centrifugation was collected and analyzed by HPLC. Compounds A-2 and A-3 were detected and quantitated in the mouse and human plasma for up to 7 days (>95%). […] The results of the plasma stability studies are shown in Tables 3 and 4 and FIGS. 6 and 7.

[2] = Plasma stability test, human plasma; format: in vitro ADME; settings: for up to 7 days, 37° C.
Protocol: as §1

| compound detected and quantitated in mouse plasma [1] [%] | compound detected and quantitated in human plasma [2] [%] | Compound |
| --- | --- | --- |
| > 95 | > 95 | C[N+]1(Cc2ccc(OS(=O)(=NCCOCCOCCOCCN=[N+]=[N-])Oc3ccccc3O[C@@H]3O[C@H](CO)[C@H](O)[C@H](O)[C@H]3O)cc2)CCCC[C@@H]1C(=O)Nc1ccccc1 (stereo partly shown) [Compound A-3] |
| > 95 | > 95 | CC(C)(C)OC(=O)N[C@@H](Cc1ccc(OS(=O)(=NCCOCCOCCOCCN=[N+]=[N-])Oc2ccccc2O[C@@H]2O[C@H](CO)[C@H](O)[C@H](O)[C@H]2O)cc1)C(=O)O (stereo partly shown) [Compound A-2] |
